This passage reports binding results from patent US20060039900A1 (Janssen / Centocor, published 2006).

These are yes or no findings as the source states them, for the method shown. Some entries that bind do so weakly or less than the wild type.

This assay deals with T1, soluble murine tissue factor extracellular domain (murine) (UniProt P20352).
T1 sequence: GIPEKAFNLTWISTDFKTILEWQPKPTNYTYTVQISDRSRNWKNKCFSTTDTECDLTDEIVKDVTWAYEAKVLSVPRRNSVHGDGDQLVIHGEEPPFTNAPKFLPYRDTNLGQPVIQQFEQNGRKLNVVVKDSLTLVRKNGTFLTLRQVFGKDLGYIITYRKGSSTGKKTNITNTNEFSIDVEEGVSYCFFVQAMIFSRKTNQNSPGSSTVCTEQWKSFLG
The experiment in a line: ELISA, purified Fabs. For orientation: An ELISA detects its analyte on a solid surface through an enzyme-linked reagent.

B1: PHD127 Fab (Fab, V domains shown)
VH: QVQLVQSGAEVKKPGESLKISCKGSYSFTNSWISWVRQMPGKGLEWMGIIDPDDSYTSYSPSFQGQVTISADKSISTAYLQWSSLKASDTAMYYCARGAGYGRMFGDVWGQGTLVTVSS
VL: DIELTQPPSVSVAPGQTARISCSGDNLGSYYASWYQQKPGQAPVLVIYQDDNRPSGIPERFSGSNSGNTATLTISGTQAEDEADYYCGAYTYSTSWVFGGGTKLTVLG
notes: Human Fab from the HuCAL library
Regarding B1, the binding result was “binds”.

B2: PHD103 Fab (Fab, V domains shown)
VH: QVQLVQSGAEVKKPGESLKISCKGSGYSFSNSWIAWVRQMPGKGLEWMGGIIGPGHSYTKYSPSFQGQVTISADKSISTAYLQWSSLKASDTAMYYCARINMGYFDYWGQGTLVTVSS
VL: DIELTQPPSVSVAPGQTARISCSGDSLGLKKFVSWYQQKPGQAPVLVIYDDSNRPSGIPERFSGSNSGNTATLTISGTQAEDEADYYCGTYDQTIGHDVVFGGGTKLTVLG
Regarding B2, the binding entry is “binds”.
